{"source": "PubChem BioAssay (NCATS)", "note": "The inconclusive results got no clear call from the source; some entries with a clear call stand among them for comparison. Where the call is inconclusive, the potency comes from a doubtful curve fit. Calls of active or inactive are those of the source. Calls follow the shape of the dose curve; as a rule, active = well fitted cell-killing curve with a large enough effect; inconclusive = small, poorly fitted or top-dose-only effect, or effect the other way; inactive = no such curve, though single readings can be large or run the other way. Potency is read from the fitted curve at half-maximal effect."}
{"test": "Quantitative High-Throughput drug screen in 47 multiple myeloma cell lines against the NCATS MIPE library collection: FR4_PLB cell viability assay (AID 1918924; also: nearly all actives have a fitted effect of over 35% in size)", "details": "FR4_PLB myeloma cells viability, CellTiter-Glo ATP, 48 h; series mostly up to 45.8 µM", "outline": "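Inhibition of cell viability is measured here. Each line was plated at 500 cells per well, treated with MIPE 4.0 drugs, kept 48 hours at 37C, then assayed for ATP content by CellTiter-Glo luminescence.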"}
{"smiles": "C[C@@H](O)[C@H]1C(=O)N2C(C(=O)OCOC(=O)C(C)(C)C)=C(SC3CN(C4=NCCS4)C3)[C@H](C)[C@H]12", "Potency": "inactive"}
{"smiles": "CCC(=O)NCC[C@@H]1CCc2ccc3c(c21)CCO3", "Potency": "inconclusive: 18.7 µM [cytotoxic, partial curve, poor fit]"}
{"smiles": "CC(=O)Nc1cccc(-n2c(=O)n(C3CC3)c(=O)c3c(Nc4ccc(I)cc4F)n(C)c(=O)c(C)c32)c1", "Potency": "active: 0.743 µM"}
{"smiles": "C[C@@H](NCc1cc2ccccc2[nH]1)c1cccc2ccccc12", "Potency": "inconclusive: 0.0093 µM [rising, full curve, poor fit]"}
{"smiles": "CCc1c2c(nc3ccc(OC(=O)N4CCC(N5CCCCC5)CC4)cc13)-c1cc3c(c(=O)n1C2)COC(=O)[C@]3(O)CC", "Potency": "active: 0.935 µM"}
{"smiles": "CCC[C@H]1C[C@H](C(=O)N[C@@H]([C@@H]2O[C@@H](SC)[C@@H](O)[C@@H](O)[C@@H]2O)[C@H](C)Cl)N(C)C1", "Potency": "inactive"}
{"smiles": "CC(=O)SC[C@@H](C)C(=O)N1CCC[C@H]1C(=O)N[C@@H](Cc1ccccc1)C(=O)O", "Potency": "inactive"}
{"smiles": "CC(=O)N1CCN(c2ccc(OC[C@H]3CO[C@](Cn4ccnc4)(c4ccc(Cl)cc4Cl)O3)cc2)CC1", "Potency": "inconclusive: 20.9 µM [cytotoxic, partial curve, poor fit]"}
{"smiles": "Cc1cc2nc3c(=O)[nH]c(=O)nc-3n(CC(O)C(O)C(O)CO)c2cc1C", "note": "(stereo not given)", "Potency": "inconclusive: 5.9 µM [cytotoxic, partial curve, poor fit]"}
{"smiles": "CC(c1cc2ccccc2s1)N(O)C(N)=O", "note": "(stereo not given)", "Potency": "inactive"}
{"smiles": "COc1cc(-c2nn(C3CCC(N4CCN(C(C)=O)CC4)CC3)c3ncnc(N)c23)ccc1NC(=O)c1cc2ccccc2n1C", "note": "(stereo not given)", "Potency": "active: 5.26 µM"}
{"smiles": "Clc1ccc(COC(Cn2ccnc2)c2ccc(Cl)cc2Cl)c(Cl)c1", "note": "(stereo not given)", "Potency": "inconclusive: 33.2 µM [cytotoxic, single point]"}
{"smiles": "Cc1cn([C@H]2C[C@H](N=[N+]=[N-])[C@@H](CO)O2)c(=O)[nH]c1=O", "Potency": "inactive"}
{"smiles": "CC(Oc1ccc(O)cc1)(P(=O)(O)O)P(=O)(O)O", "Potency": "inconclusive: 5.9 µM [cytotoxic, partial curve, poor fit]"}
{"smiles": "Nc1nc(=O)n([C@H]2CSC(CO)O2)cc1F", "note": "(stereo not given in full)", "Potency": "inactive"}
{"smiles": "CO[C@H]1/C=C\\O[C@@]2(C)Oc3c(C)c(O)c4c(O)c(c(C=NN5CCN(C6CCCC6)CC5)c(O)c4c3C2=O)NC(=O)C(C)=CC=C[C@H](C)[C@H](O)[C@@H](C)[C@@H](O)[C@@H](C)[C@H](OC(C)=O)[C@H]1C", "Potency": "active: 0.372 µM"}
{"smiles": "CCCCN(CCCC)CC(O)c1cc(Cl)cc2c1-c1ccc(Cl)cc1C2=Cc1ccc(Cl)cc1", "note": "(stereo not given)", "Potency": "inconclusive: 33.2 µM [cytotoxic, single point]"}
{"smiles": "CCCCC(=O)O[C@]1(C(=O)CO)[C@@H](C)C[C@H]2[C@@H]3CCC4=CC(=O)C=C[C@]4(C)[C@@]3(F)[C@@H](O)C[C@@]21C", "Potency": "inactive"}
{"smiles": "CCCCOCCOc1nc(-c2ccc(C(=O)O)c(F)c2)sc1C", "Potency": "inactive"}
{"smiles": "O=C(C[C@@H]1CC=CCCC(=O)O[C@H](c2ccccc2)CNC1=O)NCc1ccc(Cl)cc1", "Potency": "active: 16.6 µM"}
